Data reported in PubChem BioAssay AID186 (DTP/NCI, 2004).
The mice bore no tumour; each value counts animals alive of those treated. Survivors were counted at the toxicity check, usually on the fifth day, unless a day is given; later deaths do not show. Schedules are NCI's codes, taken here to give the interval after Q, in days (D) or hours (H), and the number of doses after X. Some entries were tested several times; the values are given in rising order.

Tested on: B6D2F1 mice, nontumored toxicity test, survival
Assay: NCI In Vivo Anticancer Drug Screen. Data for tumor model Nontumored Animals (Toxicity Test) in B6D2F1 (BDF1) mice
Settings: vehicle: saline

For `C[C@@H](CN1CC(=O)NC(=O)C1)N1CC(=O)NC(=O)C1`, the survivor count (dose: 8.0 mg/kg/injection, schedule: Q01DX009 (ip)) was 8 of 8, the survivor count (dose: 8.0 mg/kg/injection, schedule: Q01DX009 (oral)) was 7 of 7 and 8 of 8 and the survivor count (dose: 8.0 mg/kg/injection, schedule: Q01DX009 (sc)) was 8 of 8. For the same molecule, the survivor count (dose: 8.0 mg/kg/injection, schedule: Q03HX016 (ip)) was 8 of 8, the survivor count (dose: 8.0 mg/kg/injection, schedule: Q03HX024 (ip)) was 7 of 7 and the survivor count (dose: 16.0 mg/kg/injection, schedule: Q01DX009 (ip)) was 7 of 7 and 8 of 8. For the same molecule, the survivor count (dose: 16.0 mg/kg/injection, schedule: Q01DX009 (oral)) was 8 of 8, the survivor count (dose: 16.0 mg/kg/injection, schedule: Q01DX009 (sc)) was 8 of 8 and the survivor count (dose: 16.0 mg/kg/injection, schedule: Q03HX016 (ip)) was 8 of 8. For the same molecule, the survivor count (dose: 16.0 mg/kg/injection, schedule: Q03HX024 (ip)) was 8 of 8, the survivor count (dose: 32.0 mg/kg/injection, schedule: Q01DX009 (ip)) was 8 of 8 and the survivor count (dose: 32.0 mg/kg/injection, schedule: Q01DX009 (oral)) was 6 of 8 and 8 of 8. The survivor count (dose: 32.0 mg/kg/injection, schedule: Q01DX009 (sc)) was 8 of 8, the survivor count (dose: 32.0 mg/kg/injection, schedule: Q03HX016 (ip)) was 8 of 8 and the survivor count (dose: 32.0 mg/kg/injection, schedule: Q03HX024 (ip)) was 8 of 8. For the same molecule, the survivor count (dose: 64.0 mg/kg/injection, schedule: Q01DX009 (ip)) was 7 of 8, 7 of 7, 8 of 8, the survivor count (dose: 64.0 mg/kg/injection, schedule: Q01DX009 (oral)) was 5 of 8, 7 of 8, 8 of 8 and the survivor count (dose: 64.0 mg/kg/injection, schedule: Q01DX009 (sc)) was 8 of 8. For the same molecule, the survivor count (dose: 64.0 mg/kg/injection, schedule: Q03HX016 (ip)) was 8 of 8, the survivor count (dose: 64.0 mg/kg/injection, schedule: Q03HX024 (ip)) was 8 of 8 and the survivor count (dose: 64.0 mg/kg/injection, schedule: Q04DX003 (ip)) was 8 of 8. The survivor count (dose: 64.0 mg/kg/injection, schedule: Q04DX003 (sc)) was 8 of 8, the survivor count (dose: 64.0 mg/kg/injection, schedule: Q08DX002 (ip)) was 8 of 8 and the survivor count (dose: 128.0 mg/kg/injection, schedule: Q01DX009 (oral)) was 3 of 8 and 8 of 8. For the same molecule, the survivor count (dose: 128.0 mg/kg/injection, schedule: Q01DX009 (sc)) was 8 of 8, the survivor count (dose: 128.0 mg/kg/injection, schedule: Q03HX016 (ip)) was 8 of 8 and the survivor count (dose: 128.0 mg/kg/injection, schedule: Q03HX024 (ip)) was 8 of 8. The survivor count (dose: 128.0 mg/kg/injection, schedule: Q04DX003 (ip)) was 8 of 8, the survivor count (dose: 128.0 mg/kg/injection, schedule: Q04DX003 (sc)) was 8 of 8 and the survivor count (dose: 128.0 mg/kg/injection, schedule: Q08DX002 (ip)) was 8 of 8. For the same molecule, the survivor count (dose: 256.0 mg/kg/injection, schedule: Q04DX003 (ip)) was 8 of 8, the survivor count (dose: 256.0 mg/kg/injection, schedule: Q04DX003 (oral)) was 8 of 8 and the survivor count (dose: 256.0 mg/kg/injection, schedule: Q04DX003 (sc)) was 8 of 8. The survivor count (dose: 256.0 mg/kg/injection, schedule: Q08DX002 (ip)) was 8 of 8, the survivor count (dose: 512.0 mg/kg/injection, schedule: Q04DX003 (ip)) was 8 of 8 and the survivor count (dose: 512.0 mg/kg/injection, schedule: Q04DX003 (oral)) was 8 of 8. For the same molecule, the survivor count (dose: 512.0 mg/kg/injection, schedule: Q04DX003 (sc)) was 8 of 8, the survivor count (dose: 512.0 mg/kg/injection, schedule: Q08DX002 (ip)) was 8 of 8 and the survivor count (dose: 1024.0 mg/kg/injection, schedule: Q04DX003 (ip)) was 8 of 8. For the same molecule, the survivor count (dose: 1024.0 mg/kg/injection, schedule: Q04DX003 (oral)) was 8 of 8, the survivor count (dose: 1024.0 mg/kg/injection, schedule: Q04DX003 (sc)) was 8 of 8 and the survivor count (dose: 1024.0 mg/kg/injection, schedule: Q08DX002 (ip)) was 8 of 8. The survivor count (dose: 2048.0 mg/kg/injection, schedule: Q04DX003 (oral)) was 8 of 8.

In the case of `Nc1nc(=S)c2ncn(C3CC(O)C(CO)O3)c2[nH]1` (stereo not drawn), the survivor count (dose: 6.0 mg/kg/injection, schedule: Q01DX005 (oral)) is reported as 8 of 8, the survivor count (dose: 12.0 mg/kg/injection, schedule: Q01DX005 (oral)) is reported as 8 of 8 and the survivor count (dose: 24.0 mg/kg/injection, schedule: Q01DX005 (oral)) is reported as 8 of 8. The survivor count (dose: 48.0 mg/kg/injection, schedule: Q01DX005 (oral)) was 8 of 8, the survivor count (dose: 60.0 mg/kg/injection, schedule: Q08DX002 (oral)) was 8 of 8 and the survivor count (dose: 96.0 mg/kg/injection, schedule: Q01DX005 (oral)) was 8 of 8. The survivor count (dose: 120.0 mg/kg/injection, schedule: Q08DX002 (oral)) was 8 of 8, the survivor count (dose: 240.0 mg/kg/injection, schedule: Q08DX002 (oral)) was 8 of 8 and the survivor count (dose: 480.0 mg/kg/injection, schedule: Q08DX002 (oral)) was 8 of 8. For the same molecule, the survivor count (dose: 960.0 mg/kg/injection, schedule: Q08DX002 (oral)) was 8 of 8.
